Article PMC4745749
No constants are given. Whether binding was seen depends on the method and setting. For some of these results: Binding seen in cells or lysates may run through a third protein. Some binding calls cover weakened binding; strength is not graded here. For some of these results: Sequences can lack the tags named with a protein.

What was measured:
[1] = target: T1, dRad6 (yeast two-hybrid bait) (D. melanogaster) (UniProt P25153); test: two-hybrid; yeast two-hybrid screening with dRad6 as bait; data not shown
T1 sequence: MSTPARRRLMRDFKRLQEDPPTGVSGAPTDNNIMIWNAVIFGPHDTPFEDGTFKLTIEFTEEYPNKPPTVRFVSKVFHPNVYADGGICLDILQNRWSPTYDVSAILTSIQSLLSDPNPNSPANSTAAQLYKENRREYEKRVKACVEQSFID

[2] = target: T2, GST-dRad6 fusion protein (D. melanogaster) (UniProt P25153); test: pull-down; GST pull-down with GST-dRad6 fusion protein (Supplementary Figure S2A), called in vitro
T2 sequence: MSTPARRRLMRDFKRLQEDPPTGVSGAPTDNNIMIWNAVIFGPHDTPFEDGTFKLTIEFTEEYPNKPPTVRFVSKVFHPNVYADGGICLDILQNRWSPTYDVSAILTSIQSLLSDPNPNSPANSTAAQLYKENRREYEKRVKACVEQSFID

[3] = target: T3, HA-tagged dRad6 (D. melanogaster) (UniProt P25153); test: co-IP; Drosophila S2 cells transfected with HA-tagged dRad6 or GFP-tagged dASF1; IP with anti-HA or anti-GFP, blots with anti-dASF1 or anti-dRad6; cells treated with 50 μM MG132 for 10 h, or with or without 0.1% MMS for 24 h (MMS promoted the interaction)
T3 sequence: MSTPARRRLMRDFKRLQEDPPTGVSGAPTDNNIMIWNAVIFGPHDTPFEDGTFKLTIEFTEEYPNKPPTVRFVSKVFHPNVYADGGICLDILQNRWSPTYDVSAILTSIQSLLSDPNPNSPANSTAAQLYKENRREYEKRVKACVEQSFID

[4] = target: T4, GFP-tagged dASF1 (D. melanogaster) (UniProt Q9V464); test: as above
T4 sequence: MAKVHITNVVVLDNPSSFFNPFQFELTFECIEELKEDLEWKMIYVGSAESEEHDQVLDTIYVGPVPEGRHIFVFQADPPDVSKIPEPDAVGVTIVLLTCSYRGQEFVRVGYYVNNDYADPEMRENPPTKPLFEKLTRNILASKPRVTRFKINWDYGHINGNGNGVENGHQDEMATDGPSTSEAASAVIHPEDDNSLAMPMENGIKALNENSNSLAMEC

B1: dASF1 (yeast two-hybrid prey) (protein, UniProt Q9V464 1-218)
chain: MAKVHITNVVVLDNPSSFFNPFQFELTFECIEELKEDLEWKMIYVGSAESEEHDQVLDTIYVGPVPEGRHIFVFQADPPDVSKIPEPDAVGVTIVLLTCSYRGQEFVRVGYYVNNDYADPEMRENPPTKPLFEKLTRNILASKPRVTRFKINWDYGHINGNGNGVENGHQDEMATDGPSTSEAASAVIHPEDDNSLAMPMENGIKALNENSNSLAMEC
Question: With B1 as the binder, how does the binding [1] read?
Answer: binds

B2: dASF1 (GST pull-down) (protein, UniProt Q9V464 1-218)
chain: MAKVHITNVVVLDNPSSFFNPFQFELTFECIEELKEDLEWKMIYVGSAESEEHDQVLDTIYVGPVPEGRHIFVFQADPPDVSKIPEPDAVGVTIVLLTCSYRGQEFVRVGYYVNNDYADPEMRENPPTKPLFEKLTRNILASKPRVTRFKINWDYGHINGNGNGVENGHQDEMATDGPSTSEAASAVIHPEDDNSLAMPMENGIKALNENSNSLAMEC
Question: How did the binding [2] turn out when B2 was run?
Answer: binds

B3: dASF1 (endogenous, S2 cells) (protein, UniProt Q9V464 1-218)
chain: MAKVHITNVVVLDNPSSFFNPFQFELTFECIEELKEDLEWKMIYVGSAESEEHDQVLDTIYVGPVPEGRHIFVFQADPPDVSKIPEPDAVGVTIVLLTCSYRGQEFVRVGYYVNNDYADPEMRENPPTKPLFEKLTRNILASKPRVTRFKINWDYGHINGNGNGVENGHQDEMATDGPSTSEAASAVIHPEDDNSLAMPMENGIKALNENSNSLAMEC
Question: For B3, which binding [3] is on record?
Answer: binds weakly

B4: dRad6 (endogenous, S2 cells) (enzyme, UniProt P25153 1-151)
chain: MSTPARRRLMRDFKRLQEDPPTGVSGAPTDNNIMIWNAVIFGPHDTPFEDGTFKLTIEFTEEYPNKPPTVRFVSKVFHPNVYADGGICLDILQNRWSPTYDVSAILTSIQSLLSDPNPNSPANSTAAQLYKENRREYEKRVKACVEQSFID
Question: B4 was tested. Which binding [4] did it give?
Answer: binds weakly
